Source: PubChem BioAssay AID1671195 (Yale University, 2021)

Test: 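Genes whose knockdown alters LDL uptake in liver cancer cells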 (primary screen)
Cell system: human Huh7 hepatoma cells
Reagents: siRNA pool against human genes, 18 nM
Duration: about 2 to 2.5 days of knockdown, then 8 h LDL uptake
Treatment: DiI-labelled LDL at 30 µg/ml for 8 h, in lipoprotein-deficient serum medium
Measured: 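Fluorescent LDL signal imaged in cells, scaled to the plate median, robust z-score for each replicate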
Scale: robust z-score: higher = more LDL uptake after knockdown
Hit rule: 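a gene counts as active if at least two replicate z-scores exceed ±2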
Shown is a random part of about 22,000 reagents tested. About 1,510 of all reagents (6.9%) were called active. 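Active includes knockdowns raising or lowering LDL uptake; positive z-scores mean more uptake, negative mean less.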 A number with no mark means an inactive call.

gene symbol,PubChem SID,"robust z-score, replicate 1","robust z-score, replicate 2","robust z-score, replicate 3"
SLC35C1,SID442900892,0.268,-1.83,-0.904
DGKQ (diacylglycerol kinase theta),SID442899789,-0.2,-0.575,-1.23
IFT54 (intraflagellar transport 54),SID442888571,0.556,0.917,0.617
CCER1 (coiled-coil glutamate rich protein 1),SID442904147,-1.97,-1.7,-0.861
ZNF12 (zinc finger protein 12),SID442899242,-0.572,-0.79,-0.423
C5orf63 (chromosome 5 open reading frame 63),SID442884487,-2.21 (active),-2.28,-2.13
SEPTIN12 (septin 12),SID442892890,-0.481,0.304,0.517
SFTA2 (surfactant associated 2),SID442886193,0.419,2.04,1.25
LPAL2 (lipoprotein(a) like 2 (pseudogene)),SID442904150,-1.59,-1.76,-1.18
FAM228B (family with sequence similarity 228 member B),SID442902969,-1.13,-1.28,-1.15
QRFPR (pyroglutamylated RFamide peptide receptor),SID442892230,-0.239,0.745,0.0777
ELOF1 (elongation factor 1),SID442896321,-0.517,-0.0554,-0.206
PABPN1 (poly(A) binding protein nuclear 1),SID442895180,0.11,-0.606,0.0649
AMOT (angiomotin),SID442892643,0.0538,0.214,0.157
AKT1 (AKT serine/threonine kinase 1),SID442895123,0.369,-0.446,-0.334
KDM8 (lysine demethylase 8 (putative)),SID442884798,2.21,1.56,1.89
GPR78 (G protein-coupled receptor 78),SID442899666,-0.636,-0.852,-0.467
METTL27 (methyltransferase like 27),SID442884297,-1.87 (active),-2.11,-1.6
LRRC28 (leucine rich repeat containing 28),SID442884205,0.807 (active),2.11,2.22
ZNF407-AS1 (ZNF407 antisense RNA 1),SID442885528,1.58,1.49,1.36
SFRP4 (secreted frizzled related protein 4),SID442884238,1.92 (active),2.07,-0.2
AMZ1 (archaelysin family metallopeptidase 1),SID442904532,-1.61,-1.51,-1.95
TMPRSS11F (transmembrane serine protease 11F),SID442885209,1.98,1.06,1.82
VGLL3 (vestigial like family member 3),SID442904238,-1.68,-1.44,-1.49
PKHD1L1 (PKHD1 like 1),SID442897551,-0.329,-0.467,-0.399
DNM1P46 (dynamin 1 pseudogene 46),SID442893534,0.522,0.164,-0.57
OR8G5 (olfactory receptor family 8 subfamily G member 5),SID442895992,-0.292,-0.354,-0.0343
NDUFA8 (NADH:ubiquinone oxidoreductase subunit A8),SID442895344,1.18,-0.629,-1.03
HSPB7 (heat shock protein family B (small) member 7),SID442896573,-0.279,-0.406,-0.18
CD40 (CD40 molecule),SID442893557,0.244,-0.0173,-0.117
GNAL (G protein subunit alpha L),SID442892566,0.718,0.647,-0.913
SLC4A1AP,SID442888254,0.662,1.1,0.507
PSMA3-AS1 (PSMA3 antisense RNA 1),SID442901368,-0.33,-1.21,-1.13
NEIL1 (nei like DNA glycosylase 1),SID442886523,1.14,0.787,1.48
ERAS (ES cell expressed Ras),SID442898201,-1.23,-0.524,0.335
OR1M1 (olfactory receptor family 1 subfamily M member 1),SID442899215,-0.522,-0.468,-0.787
POLI (DNA polymerase iota),SID442886836,0.868,0.875,1.41
WDR35 (WD repeat domain 35),SID442891737,0.168,0.887,-0.304
PTP4A1 (protein tyrosine phosphatase 4A1),SID442885235,1.69,1.66,1.48

4 of these entries in another layout.
NDUFA8 (NADH:ubiquinone oxidoreductase subunit A8) [SID442895344]
- robust z-score, replicate 1: 1.18
- robust z-score, replicate 2: -0.629
- robust z-score, replicate 3: -1.03

HSPB7 (heat shock protein family B (small) member 7) [SID442896573]
- robust z-score, replicate 1: -0.279
- robust z-score, replicate 2: -0.406
- robust z-score, replicate 3: -0.18

CD40 (CD40 molecule) [SID442893557]
- robust z-score, replicate 1: 0.244
- robust z-score, replicate 2: -0.0173
- robust z-score, replicate 3: -0.117

GNAL (G protein subunit alpha L) [SID442892566]
- robust z-score, replicate 1: 0.718
- robust z-score, replicate 2: 0.647
- robust z-score, replicate 3: -0.913

The list goes on:
gene symbol,PubChem SID,"robust z-score, replicate 1","robust z-score, replicate 2","robust z-score, replicate 3"
ARMH4 (armadillo like helical domain containing 4),SID442892995,0.452,-0.519,0.365
DBNDD1 (dysbindin domain containing 1),SID442900828,-0.76,-1.14,-0.535
LOC440264 (retired record),SID442896159,-0.281,-0.242,-0.208
TSGA10 (testis specific 10),SID442891198,0.838,-0.0226,0.138
CLMN (calmin),SID442889440,0.704,0.805,0.168
STX2 (syntaxin 2),SID442893593,-0.314,0.262,0.148
"ABCA16P (ATP binding cassette subfamily A member 16, pseudogene)",SID442899488,-0.711,-0.615,-0.555
FMR1NB (FMR1 neighbor),SID442902444,-1.12,-0.91,-1.2
HERC5 (HECT and RLD domain containing E3 ubiquitin protein ligase 5),SID442895399,-0.106,0.42,-0.811
TG (thyroglobulin),SID442888617,0.642,0.325,1.1
LOC388383 (retired record),SID442899527,-0.302,-1.28,-0.307
TCTN3 (tectonic family member 3),SID442902193,-1.44,-0.97,-0.67
TEX13A (testis expressed 13A),SID442892106,0.596,-0.741,0.768
CCL25 (C-C motif chemokine ligand 25),SID442883715,2.29 (active),2.55,2.41
RPS4XP13 (ribosomal protein S4X pseudogene 13),SID442897008,-0.433,-0.167,-0.412
FBXL12 (F-box and leucine rich repeat protein 12),SID442897217,-0.327,-0.0943,-0.658
SSTR5-AS1 (SSTR5 antisense RNA 1),SID442883921,1.88 (active),2.13,2.45
"AIDA (axin interactor, dorsalization associated)",SID442891308,0.519,0.423,-0.0344
ZNF385D (zinc finger protein 385D),SID442891080,0.847,0.449,-0.294
C3orf80 (chromosome 3 open reading frame 80),SID442903690,-1.39,-1.28,-1.41
SERBP1 (SERPINE1 mRNA binding protein 1),SID442888602,0.979,0.652,0.446
LOC440892 (retired record),SID442891756,-1.83,1.13,1.44
LOC440711 (retired record),SID442886904,0.9,0.989,1.21
CAPN14 (calpain 14),SID442895650,-0.345,-0.0907,-0.136
WDR81 (WD repeat domain 81),SID442902260,-0.792,-1.05,-1.28
EFS (embryonal Fyn-associated substrate),SID442883866,2.55 (active),2.32,1.79
HOXB9 (homeobox B9),SID442892785,0.0687,-0.245,0.549
CALHM1 (calcium homeostasis modulator 1),SID442889089,0.559,0.488,0.795
LOC338756 (retired record),SID442893666,0.189,0.0141,-0.131
